From the supplement of paper PMC8291772
± gives the standard error. The list shows a part of the results. Repeats in this data set agree poorly, so a single value says little.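 The library contained all possible DNA sequences one to five nucleotides in length. General extension ability was assessed against a threshold of the blocked-version mean plus three standard deviations, and the probe detects only chains extended by seven or more dT.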

Chains of the proteins cited; added tags and fusions are not shown. Lines headed by an entry give the natural chain unless they say otherwise; changes in a name come on top.
UniProt P06526: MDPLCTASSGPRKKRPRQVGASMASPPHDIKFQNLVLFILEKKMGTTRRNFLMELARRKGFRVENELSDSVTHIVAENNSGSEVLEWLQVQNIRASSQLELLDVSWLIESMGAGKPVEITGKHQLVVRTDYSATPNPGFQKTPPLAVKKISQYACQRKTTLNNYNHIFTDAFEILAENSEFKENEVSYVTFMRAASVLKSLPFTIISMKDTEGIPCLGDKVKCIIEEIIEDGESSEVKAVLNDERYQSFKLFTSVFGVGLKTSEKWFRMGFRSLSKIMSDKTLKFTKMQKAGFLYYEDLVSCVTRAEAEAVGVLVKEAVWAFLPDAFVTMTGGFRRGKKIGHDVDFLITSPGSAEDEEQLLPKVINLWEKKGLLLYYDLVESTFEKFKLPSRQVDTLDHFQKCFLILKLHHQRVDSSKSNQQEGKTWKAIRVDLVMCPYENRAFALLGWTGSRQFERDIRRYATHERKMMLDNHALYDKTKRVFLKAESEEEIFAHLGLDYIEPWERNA

These sequences were tested against terminal deoxynucleotidyl transferase (calf thymus) (UniProt P06526) (assay: TdT poly-dT extension signal (Cy3 hybridisation fluorescence, uncapped minus capped) (fluorescence a.u.); higher = more efficient initiation of TdT extension). Conditions: initiator chemistry: D-DNA, free 3'-OH (5'-tethered via HEG linker).
Method: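 All mono- to pentamer initiator sequences were made by photolithographic in situ synthesis (reverse 5'->3' direction) on glass on a single hexaethylene glycol linker. Each was made in uncapped and DMTr-dT-capped versions, about 11 replicate features each. Arrays were extended with calf thymus TdT (0.2 U/uL) and 100 uM dTTP in TdT buffer with 0.25 mM CoCl2 for 120 min at 37 C, then hybridised with an rA18-Cy3 probe at 4 C and scanned at 532 nm. The value is the mean uncapped signal minus the mean capped signal of the same sequence.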

Sequence	TdT poly-dT extension signal
GATG	4170 ± 340
TACAA	4110 ± 460
TGCA	3740 ± 380
GTCG	3150 ± 380
TAAA	4000 ± 470
AGTCT	3190 ± 310
TTCTT	4180 ± 140
GTCTA	2770 ± 460
AACTA	3240 ± 630
CCGA	3920 ± 560
TTCT	3390 ± 310
GCCGG	3620 ± 460
GTCTG	4110 ± 320
TGTC	3640 ± 210
TTTA	3430 ± 330
GTAAC	3020 ± 410
CGAA	3790 ± 440
TGCTC	2070 ± 210
GGTAG	3340 ± 450
GGGAT	3760 ± 440
CAGCC	3480 ± 230
GGCAC	3660 ± 220

Sequence	TdT poly-dT extension signal
AATT	3510 ± 510
GTCTC	2750 ± 280
TACT	3080 ± 320
GAGCT	3850 ± 600
CCTGG	4420 ± 670
ACGGT	4040 ± 370
CACCA	3400 ± 370
ACGTG	3630 ± 330
CCATT	4380 ± 230
CTTT	4200 ± 510
GCATG	3450 ± 450
GATGT	3380 ± 400
GATT	3240 ± 330
CAAC	3450 ± 270
TTACG	3620 ± 370
GTTGG	3050 ± 430
CAATG	3110 ± 380
TCGA	3970 ± 520
GATAC	2510 ± 320
TGCCT	3260 ± 200
TGAAT	4750 ± 180
ATTTA	4120 ± 250

Sequence	TdT poly-dT extension signal
AGCTC	2430 ± 210
ACATA	4110 ± 440
GACG	3700 ± 400
ACGA	4070 ± 370
GACC	3300 ± 390
CGAAT	3180 ± 390
GGAAG	3970 ± 420
CTTAA	4370 ± 340
TTTAT	3870 ± 330
CGTGA	3970 ± 720
ATAC	2600 ± 310
TTAGA	4270 ± 500
ACTCC	2540 ± 390
CGGCT	3780 ± 290
GCACC	3060 ± 280
GCCTT	4050 ± 390
AACTT	3460 ± 350
AGCGT	4690 ± 720
GGGAA	5150 ± 430
AGGT	2900 ± 410
CCGGC	3640 ± 400
ACTAT	3790 ± 350

Sequence	TdT poly-dT extension signal
GAAGT	4530 ± 280
CGCAG	3680 ± 700
GACTA	3360 ± 440
AACA	3500 ± 410
GTATA	3030 ± 340
TCCGA	4640 ± 740
CGTGC	3190 ± 400
ATCCC	2560 ± 280
TTCGC	3120 ± 320
CATCA	3280 ± 290
GGATG	4040 ± 300
TAAGT	4350 ± 400
TTATG	3810 ± 360
AACCA	3220 ± 440
TCACT	3770 ± 530
AGGA	2790 ± 380
TGAA	3900 ± 450
TTTGA	4740 ± 490
AACCT	2990 ± 310
TCGGC	3690 ± 310
ACTA	3900 ± 330
TTCC	3490 ± 280

32 entries from above, set out differently.
Sequence | TdT poly-dT extension signal
TTAGA | 4270 ± 500
ACTCC | 2540 ± 390
CGGCT | 3780 ± 290
GCACC | 3060 ± 280
GCCTT | 4050 ± 390
AACTT | 3460 ± 350
AGCGT | 4690 ± 720
GGGAA | 5150 ± 430
AGGT | 2900 ± 410
CCGGC | 3640 ± 400
ACTAT | 3790 ± 350
GAAGT | 4530 ± 280
CGCAG | 3680 ± 700
GACTA | 3360 ± 440
AACA | 3500 ± 410
GTATA | 3030 ± 340
TCCGA | 4640 ± 740
CGTGC | 3190 ± 400
ATCCC | 2560 ± 280
TTCGC | 3120 ± 320
CATCA | 3280 ± 290
GGATG | 4040 ± 300
TAAGT | 4350 ± 400
TTATG | 3810 ± 360
AACCA | 3220 ± 440
TCACT | 3770 ± 530
AGGA | 2790 ± 380
TGAA | 3900 ± 450
TTTGA | 4740 ± 490
AACCT | 2990 ± 310
TCGGC | 3690 ± 310
ACTA | 3900 ± 330

Further results follow.

Sequence	TdT poly-dT extension signal
AGTGT	3960 ± 450
CGGG	3830 ± 590
GCGAT	4470 ± 520
CGGCG	5150 ± 350
TGGG	3770 ± 360
GGCCG	3720 ± 370
CGGCA	4440 ± 500
TATCA	3820 ± 210
CGCGT	4310 ± 790
GCGG	4820 ± 640
AGTTT	4220 ± 510
GCCA	3370 ± 350
CGATG	3830 ± 350
AGTGG	3030 ± 730
CAGCT	3140 ± 260
AATTA	3890 ± 480
TGGTG	3500 ± 370
AGTAT	4160 ± 500
TGCGG	3620 ± 420
TCTGA	3550 ± 340
